Reference: US5254574A, “New tetrazole derivatives, process for their preparation and their use” (Chemisch Pharmazeutische Forschungsgesellschaft m.b.H., priority 1991, dated 1993)
For at least one compound, name, drawing or mass did not settle the structure.

Target: T1, Angiotensin II receptor (isolated rat aorta) (Rattus norvegicus, UniProt P25095)
T1 construct: isolated rat aorta; from tissue; host or cells: isolated rat aorta
T1 sequence (P25095 1-359): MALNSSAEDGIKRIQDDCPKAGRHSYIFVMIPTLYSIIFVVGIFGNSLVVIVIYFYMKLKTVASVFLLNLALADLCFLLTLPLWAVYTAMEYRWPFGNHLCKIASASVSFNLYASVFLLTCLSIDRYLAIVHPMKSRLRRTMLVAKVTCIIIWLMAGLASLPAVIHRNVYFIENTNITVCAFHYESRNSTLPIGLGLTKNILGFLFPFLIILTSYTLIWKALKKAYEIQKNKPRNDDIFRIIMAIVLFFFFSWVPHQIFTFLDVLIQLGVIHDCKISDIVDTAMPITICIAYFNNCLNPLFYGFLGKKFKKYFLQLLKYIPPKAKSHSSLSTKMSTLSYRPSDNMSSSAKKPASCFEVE
Experiment: Isolated rat aorta, contractile force; cumulative angiotensin II dose-response curves with and without antagonist pretreatment
Details: n = 8
Protocol: 1 or DuP 753 (10-8, 10^-7, 10^-6 mol/1, each) and results were expressed as percentage of maximum contraction obtained by addition of 10^-5 mol/1 noradrenaline.
EP50 -values and pA2 -values were determined arithmetically.
FIG. 1 Isolated rat aorta contractile force of subst. 1
FIG. 2 Isolated rat aorta contractile force of DuP 753

SMILES: CCCCc1nc(Cl)c(-c2nc(C)no2)n1Cc1ccc(-c2ccccc2-c2nn[nH]n2)cc1 [Subst. 1, 5-(4'-(2-Butyl-4-chloro-5-(3-methyl-1,2,4-oxadiazol-5-yl)-1-imidazolylmethyl)biphenyl-2-yl)-1H-tetrazole]
- ED50 of angiotensin II in presence of antagonist (antagonist +10^-6 mol/l): 1,7.10^-7 mol/l
- ED50 of angiotensin II in presence of antagonist (antagonist +10^-7 mol/l): 1,9.10^-8 mol/l
- ED50 of angiotensin II in presence of antagonist (antagonist +10^-8 mol/l): 7,9.10^-9 mol/l
